From patent US10676496B2, “Method for producing flavonoid inclusion compound” (TAIYO KAGAKU CO., LTD., priority 2017, dated 2020)
For some assays here: At least one compound was matched to its structure with a doubt left. Some entries share one result that the patent states for a list of compounds.

Legend:
[1] = Evaluation of storage stability (acidic sugar solution); type: physicochemical; conditions: acidic sugar solution pH 3, 0.03% as isoquercitrin
[2] = Evaluations of flavors of compositions of flavonoid glycosides (sensory, seven panelists); conditions: 0.05% isoquercitrin-containing acidic sugar solution, 30 minutes at room temperature
[3] = background statement; cited from earlier work

## O=c1c(O[C@@H]2O[C@H](CO)[C@@H](O)[C@H](O)[C@H]2O)c(-c2ccc(O)c(O)c2)oc2cc(O)cc(O)c12 [Isoquercitrin, isoquercitrin]
[1]; 4 months at 4° C.
  presence or absence of the precipitates, 4° C.: x (those in which the precipitates were observed were evaluated as x)
[1]; 4 months at 25° C.
  presence or absence of the precipitates, 25° C.: x (those in which the precipitates were observed were evaluated as x)
[1]; 4 months at 40° C.
  presence or absence of the precipitates, 40° C.: x (those in which the precipitates were observed were evaluated as x)
[2]
  precipitates after the preparation: precipitates were not observed

## C[C@@H]1O[C@@H](OC[C@H]2O[C@@H](Oc3c(-c4ccc(O)c(O)c4)oc4cc(O)cc(O)c4c3=O)[C@H](O)[C@@H](O)[C@@H]2O)[C@H](O)[C@H](O)[C@H]1O [Rutin Suspension, rutin]
[3]
  solubility: ≤ 0.01%
